Experimental findings from paper PMC4109838 are described below.

By UniProt entry, the sequences of proteins in these tests, tags left out.
UniProt Q93008: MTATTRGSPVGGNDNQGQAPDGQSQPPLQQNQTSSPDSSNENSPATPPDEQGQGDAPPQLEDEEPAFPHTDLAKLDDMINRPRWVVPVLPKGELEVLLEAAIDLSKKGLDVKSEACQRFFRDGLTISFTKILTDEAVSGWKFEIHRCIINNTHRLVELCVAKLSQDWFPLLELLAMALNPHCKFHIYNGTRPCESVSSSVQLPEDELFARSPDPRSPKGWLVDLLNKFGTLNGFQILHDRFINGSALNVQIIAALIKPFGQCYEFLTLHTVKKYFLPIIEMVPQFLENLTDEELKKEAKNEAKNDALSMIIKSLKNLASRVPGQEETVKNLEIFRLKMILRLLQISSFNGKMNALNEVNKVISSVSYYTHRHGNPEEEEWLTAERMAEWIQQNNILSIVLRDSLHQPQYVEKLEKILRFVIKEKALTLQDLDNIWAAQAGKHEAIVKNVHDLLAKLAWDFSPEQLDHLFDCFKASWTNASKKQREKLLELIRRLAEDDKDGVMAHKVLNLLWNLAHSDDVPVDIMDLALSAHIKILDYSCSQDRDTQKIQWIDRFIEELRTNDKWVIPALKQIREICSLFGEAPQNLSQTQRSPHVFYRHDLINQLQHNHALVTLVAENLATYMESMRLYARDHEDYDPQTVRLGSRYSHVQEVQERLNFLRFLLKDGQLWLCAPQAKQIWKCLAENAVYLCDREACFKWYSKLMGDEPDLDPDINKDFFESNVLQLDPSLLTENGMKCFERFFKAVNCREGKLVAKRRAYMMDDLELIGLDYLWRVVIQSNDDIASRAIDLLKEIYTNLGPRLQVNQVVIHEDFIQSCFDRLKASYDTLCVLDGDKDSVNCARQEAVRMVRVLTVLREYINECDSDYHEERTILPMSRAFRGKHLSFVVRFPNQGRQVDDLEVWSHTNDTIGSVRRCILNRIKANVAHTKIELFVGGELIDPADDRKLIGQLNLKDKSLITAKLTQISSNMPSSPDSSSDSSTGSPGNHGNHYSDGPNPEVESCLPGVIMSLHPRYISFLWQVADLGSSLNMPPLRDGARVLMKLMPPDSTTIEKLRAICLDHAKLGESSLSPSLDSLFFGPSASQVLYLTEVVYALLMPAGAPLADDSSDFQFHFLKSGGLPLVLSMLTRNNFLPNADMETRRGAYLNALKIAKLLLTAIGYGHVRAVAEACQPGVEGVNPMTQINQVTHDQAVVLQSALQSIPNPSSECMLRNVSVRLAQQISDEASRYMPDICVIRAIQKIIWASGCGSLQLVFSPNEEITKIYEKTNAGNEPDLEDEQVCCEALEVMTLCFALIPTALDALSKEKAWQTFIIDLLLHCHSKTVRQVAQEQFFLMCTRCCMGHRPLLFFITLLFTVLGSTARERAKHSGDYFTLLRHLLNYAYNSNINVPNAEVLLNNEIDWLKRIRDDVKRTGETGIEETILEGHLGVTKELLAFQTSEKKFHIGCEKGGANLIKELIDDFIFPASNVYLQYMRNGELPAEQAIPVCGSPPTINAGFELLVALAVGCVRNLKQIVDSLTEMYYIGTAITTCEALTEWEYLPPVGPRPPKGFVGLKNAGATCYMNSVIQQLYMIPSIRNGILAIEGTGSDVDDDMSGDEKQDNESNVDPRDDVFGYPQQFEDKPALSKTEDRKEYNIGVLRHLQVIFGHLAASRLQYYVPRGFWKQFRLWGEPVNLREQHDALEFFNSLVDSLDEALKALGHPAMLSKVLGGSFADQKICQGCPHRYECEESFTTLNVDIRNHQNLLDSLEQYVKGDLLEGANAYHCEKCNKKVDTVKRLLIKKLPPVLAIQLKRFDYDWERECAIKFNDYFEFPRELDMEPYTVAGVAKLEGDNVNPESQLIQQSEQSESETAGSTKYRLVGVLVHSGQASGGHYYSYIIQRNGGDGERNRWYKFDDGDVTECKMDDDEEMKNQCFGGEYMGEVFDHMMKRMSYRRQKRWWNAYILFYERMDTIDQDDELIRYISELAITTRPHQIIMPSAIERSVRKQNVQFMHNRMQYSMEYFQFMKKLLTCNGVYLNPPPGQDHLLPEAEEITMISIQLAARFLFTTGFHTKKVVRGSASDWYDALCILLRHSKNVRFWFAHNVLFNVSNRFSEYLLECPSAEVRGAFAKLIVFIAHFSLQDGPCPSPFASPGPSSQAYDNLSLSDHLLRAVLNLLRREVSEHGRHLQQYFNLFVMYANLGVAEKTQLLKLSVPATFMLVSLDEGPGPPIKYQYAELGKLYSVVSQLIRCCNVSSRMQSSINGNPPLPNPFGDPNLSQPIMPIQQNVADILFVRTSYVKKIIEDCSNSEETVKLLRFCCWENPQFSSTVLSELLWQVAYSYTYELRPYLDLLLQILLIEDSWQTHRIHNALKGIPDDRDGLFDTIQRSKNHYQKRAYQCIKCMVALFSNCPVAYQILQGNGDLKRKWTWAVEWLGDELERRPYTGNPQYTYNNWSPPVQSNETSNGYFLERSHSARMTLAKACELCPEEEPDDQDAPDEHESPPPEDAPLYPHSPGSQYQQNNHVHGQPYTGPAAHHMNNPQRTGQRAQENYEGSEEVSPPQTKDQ
UniProt Q9BZL4: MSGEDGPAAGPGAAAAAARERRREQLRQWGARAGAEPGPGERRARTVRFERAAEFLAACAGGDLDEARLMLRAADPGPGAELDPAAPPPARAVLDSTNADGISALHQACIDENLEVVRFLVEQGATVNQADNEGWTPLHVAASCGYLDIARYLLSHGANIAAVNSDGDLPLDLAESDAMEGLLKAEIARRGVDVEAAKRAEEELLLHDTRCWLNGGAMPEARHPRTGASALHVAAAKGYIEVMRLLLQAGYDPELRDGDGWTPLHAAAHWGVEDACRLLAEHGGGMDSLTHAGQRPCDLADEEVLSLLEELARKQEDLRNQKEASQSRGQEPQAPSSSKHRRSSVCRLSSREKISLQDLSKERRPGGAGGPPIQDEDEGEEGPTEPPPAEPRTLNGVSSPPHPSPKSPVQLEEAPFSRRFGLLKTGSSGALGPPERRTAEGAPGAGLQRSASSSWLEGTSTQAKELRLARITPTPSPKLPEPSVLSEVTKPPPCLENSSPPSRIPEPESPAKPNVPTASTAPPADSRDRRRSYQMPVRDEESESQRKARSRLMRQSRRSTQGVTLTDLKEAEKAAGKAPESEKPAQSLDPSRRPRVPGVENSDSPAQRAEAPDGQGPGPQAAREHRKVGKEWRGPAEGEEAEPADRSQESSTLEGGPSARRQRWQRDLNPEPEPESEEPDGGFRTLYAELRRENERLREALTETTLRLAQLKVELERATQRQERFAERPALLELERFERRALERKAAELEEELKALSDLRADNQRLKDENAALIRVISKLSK
UniProt Q9UKB1: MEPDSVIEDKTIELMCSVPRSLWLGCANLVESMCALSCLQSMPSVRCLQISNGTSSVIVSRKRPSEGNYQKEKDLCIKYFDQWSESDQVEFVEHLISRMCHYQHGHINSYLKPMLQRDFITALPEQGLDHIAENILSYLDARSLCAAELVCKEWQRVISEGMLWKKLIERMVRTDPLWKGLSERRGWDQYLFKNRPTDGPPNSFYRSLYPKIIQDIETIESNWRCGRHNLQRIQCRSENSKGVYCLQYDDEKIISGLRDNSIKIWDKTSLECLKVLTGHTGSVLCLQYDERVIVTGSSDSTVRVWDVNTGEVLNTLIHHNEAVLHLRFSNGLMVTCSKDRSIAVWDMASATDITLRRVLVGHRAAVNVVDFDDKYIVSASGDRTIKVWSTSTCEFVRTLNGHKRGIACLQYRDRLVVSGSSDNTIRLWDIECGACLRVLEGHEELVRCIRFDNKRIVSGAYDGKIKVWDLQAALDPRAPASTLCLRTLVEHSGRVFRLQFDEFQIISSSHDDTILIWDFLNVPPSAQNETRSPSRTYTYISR
UniProt P63208: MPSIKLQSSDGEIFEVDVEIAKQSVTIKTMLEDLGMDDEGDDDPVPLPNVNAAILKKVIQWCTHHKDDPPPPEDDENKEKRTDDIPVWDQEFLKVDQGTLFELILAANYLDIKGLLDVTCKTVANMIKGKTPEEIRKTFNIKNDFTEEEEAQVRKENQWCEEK

T1: HA–NUAK1 (wild type), stably overexpressed in U2OS Flp/In cells (human) (UniProt O60285)
T1 sequence: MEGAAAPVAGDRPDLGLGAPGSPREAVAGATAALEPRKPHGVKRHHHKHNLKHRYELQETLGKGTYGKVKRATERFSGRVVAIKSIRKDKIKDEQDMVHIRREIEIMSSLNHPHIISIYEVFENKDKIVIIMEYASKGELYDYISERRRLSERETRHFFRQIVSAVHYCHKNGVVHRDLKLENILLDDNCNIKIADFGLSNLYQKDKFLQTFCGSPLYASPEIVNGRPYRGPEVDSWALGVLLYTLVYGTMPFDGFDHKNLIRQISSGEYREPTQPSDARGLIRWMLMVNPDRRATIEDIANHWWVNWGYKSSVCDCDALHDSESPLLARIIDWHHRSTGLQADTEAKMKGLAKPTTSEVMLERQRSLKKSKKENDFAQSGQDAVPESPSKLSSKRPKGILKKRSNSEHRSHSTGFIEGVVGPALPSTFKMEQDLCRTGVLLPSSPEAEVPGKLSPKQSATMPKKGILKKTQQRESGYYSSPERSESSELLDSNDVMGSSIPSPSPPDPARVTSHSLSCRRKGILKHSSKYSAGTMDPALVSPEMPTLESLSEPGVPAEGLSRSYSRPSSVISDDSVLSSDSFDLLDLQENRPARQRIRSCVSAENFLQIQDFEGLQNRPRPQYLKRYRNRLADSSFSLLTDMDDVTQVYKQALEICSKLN

B1: MYPT2 (protein, UniProt O60237 1-982)
chain: MAELEHLGGKRAESARMRRAEQLRRWRGSLTEQEPAERRGAGRQPLTRRGSPRVRFEDGAVFLAACSSGDTDEVRKLLARGADINTVNVDGLTALHQACIDENLDMVKFLVENRANVNQQDNEGWTPLHAAASCGYLNIAEYFINHGASVGIVNSEGEVPSDLAEEPAMKDLLLEQVKKQGVDLEQSRKEEEQQMLQDARQWLNSGKIEDVRQARSGATALHVAAAKGYSEVLRLLIQAGYELNVQDYDGWTPLHAAAHWGVKEACSILAEALCDMDIRNKLGQTPFDVADEGLVEHLELLQKKQNVLRSEKETRNKLIESDLNSKIQSGFFKNKEKMLYEEETPKSQEMEEENKESSSSSSEEEEGEDEASESETEKEADKKPEAFVNHSNSESKSSITEQIPAPAQNTFSASSARRFSSGLFNKPEEPKDESPSSWRLGLRKTGSHNMLSEVANSREPIRDRGSSIYRSSSSPRISALLDNKDKERENKSYISSLAPRKLNSTSDIEEKENRESAVNLVRSGSYTRQLWRDEAKGNEIPQTIAPSTYVSTYLKRTPHKSQADTTAEKTADNVSSSTPLCVITNRPLPSTANGVTATPVLSITGTDSSVEAREKRRSYLTPVRDEEAESLRKARSRQARQTRRSTQGVTLTDLQEAERTFSRSRAERQAQEQPREKPTDTEGLEGSPEKHEPSAVPATEAGEGQQPWGRSLDEEPICHRLRCPAQPDKPTTPASPSTSRPSLYTSSHLLWTNRFSVPDSESSETTTNTTTAKEMDKNENEEADLDEQSSKRLSIRERRRPKERRRGTGINFWTKDEDETDGSEEVKETWHERLSRLESGGSNPTTSDSYGDRASARARREAREARLATLTSRVEEDSNRDYKKLYESALTENQKLKTKLQEAQLELADIKSKLEKVAQQKQEKTSDRSSVLEMEKRERRALERKMSEMEEEMKVLTELKSDNQRLKDENGALIRVISKLSK

Results are given in words; binding and its absence hold for the method and conditions named. Binding seen in cells or lysates may run through a third protein. A yes stands for co-enrichment or nearness to the bait. Other partners may have been found. Sequences can lack the tags named with a protein.

For the assay, the target named is T1, HA–NUAK1 (wild type), stably overexpressed in U2OS Flp/In cells (human). Put plainly: affinity purification with mass spectrometry; HA–NUAK1 immunoprecipitated from 35 mg of U2OS Flp/In lysate; gel stained with Coomassie Blue, cut into pieces, proteins identified by mass fingerprinting; cells with empty vector as control.
With βTrCP1 (human (endogenous in U2OS)), the binding result is “binds”.

As to ubiquitin (human (endogenous in U2OS)), the binding result was “binds”.

For USP9X (from UniProt Q93008 1-2554), the binding entry is given as “binds”.

Turning to MBS85 (from UniProt Q9BZL4 1-782), the binding result was “binds”.

Take βTrCP2 (from UniProt Q9UKB1 1-542): the binding entry was “binds”.

Consider “SKP1 (S-phase kinase-associated protein 1) (from UniProt P63208 1-163)”, for which the binding result is recorded as “binds”.

With B1, the binding result is “binds”.
